Results: patent US7598397B2, “Sulfonamide peri-substituted bicyclics for occlusive artery disease” (deCODE genetics ehf, priority 2004, dated 2009)
The structures given here were assigned with low confidence; some may be wrong.

Legend:
[1] = test system: female C57BL/6 mice; experiment: pulmonary thromboembolism induced by arachidonic acid (platelet aggregation in vivo); conditions: 100 mg/kg orally, 30 min before arachidonic acid 30 mg/kg i.v.; survival one hour after challenge
[2] = test system: human platelets; experiment: platelet aggregation in vitro, human platelets; conditions: read-out: IC50 (nM) for Test Compounds, agonist Sulprostone (100 nM) and collagen (0.125 ug.mL), Serum % 50
[3] = test system: rat platelets; experiment: platelet aggregation in vitro, rat platelets; conditions: read-out: IC50 (nM) for Test Compounds, agonist Sulprostone (100 nM) and collagen (2.0 ug.mL), Serum % 20

For `O=C(COc1cccc2[nH]cc(Cc3ccc4ccccc4c3)c12)NS(=O)(=O)c1cc(Cl)c(Cl)s1`, the “No. mice surviving/Total no. of mice evalauted” value [1] was 20/43, the Survival rate [1] was 46% and the IC50 [2] was 14.1 nM. The IC50 [3] was 78.5 nM.
